Among the targets are Flag-PRMT1 (human) (UniProt Q99873); Flag-PRMT3 (human) (UniProt O60678); Flag-PRMT5 (human) (UniProt O14744); GFP-ALIX-FL (human) (UniProt Q8WUM4).
What all share (assay): co-IP
The target of another experiment is T1, Flag-PRMT2 (human) (UniProt P55345).
T1 sequence: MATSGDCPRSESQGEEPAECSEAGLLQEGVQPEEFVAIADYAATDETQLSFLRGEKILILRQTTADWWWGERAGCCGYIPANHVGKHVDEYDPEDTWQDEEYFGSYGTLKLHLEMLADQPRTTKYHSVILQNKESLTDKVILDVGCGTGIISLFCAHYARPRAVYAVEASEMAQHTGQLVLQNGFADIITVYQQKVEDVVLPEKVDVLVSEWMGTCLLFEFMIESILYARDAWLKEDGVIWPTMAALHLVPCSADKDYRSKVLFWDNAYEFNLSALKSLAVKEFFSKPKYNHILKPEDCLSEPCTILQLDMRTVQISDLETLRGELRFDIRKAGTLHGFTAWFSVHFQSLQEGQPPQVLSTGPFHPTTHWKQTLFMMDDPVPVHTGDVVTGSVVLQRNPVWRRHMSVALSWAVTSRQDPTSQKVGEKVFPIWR

Chains of the proteins cited; added tags and fusions are not shown. Lines headed by an entry give the natural chain unless they say otherwise; changes in a name come on top.
UniProt Q99873: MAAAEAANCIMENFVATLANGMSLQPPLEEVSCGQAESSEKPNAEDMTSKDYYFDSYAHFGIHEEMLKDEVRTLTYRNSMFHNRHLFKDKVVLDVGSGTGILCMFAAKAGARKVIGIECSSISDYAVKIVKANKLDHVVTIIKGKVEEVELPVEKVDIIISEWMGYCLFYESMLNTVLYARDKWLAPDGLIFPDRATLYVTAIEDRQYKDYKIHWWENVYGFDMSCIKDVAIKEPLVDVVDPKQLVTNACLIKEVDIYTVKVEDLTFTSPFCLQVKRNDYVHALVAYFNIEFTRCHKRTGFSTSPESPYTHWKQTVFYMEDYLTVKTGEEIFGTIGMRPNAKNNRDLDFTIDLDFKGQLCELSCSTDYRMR
UniProt O60678: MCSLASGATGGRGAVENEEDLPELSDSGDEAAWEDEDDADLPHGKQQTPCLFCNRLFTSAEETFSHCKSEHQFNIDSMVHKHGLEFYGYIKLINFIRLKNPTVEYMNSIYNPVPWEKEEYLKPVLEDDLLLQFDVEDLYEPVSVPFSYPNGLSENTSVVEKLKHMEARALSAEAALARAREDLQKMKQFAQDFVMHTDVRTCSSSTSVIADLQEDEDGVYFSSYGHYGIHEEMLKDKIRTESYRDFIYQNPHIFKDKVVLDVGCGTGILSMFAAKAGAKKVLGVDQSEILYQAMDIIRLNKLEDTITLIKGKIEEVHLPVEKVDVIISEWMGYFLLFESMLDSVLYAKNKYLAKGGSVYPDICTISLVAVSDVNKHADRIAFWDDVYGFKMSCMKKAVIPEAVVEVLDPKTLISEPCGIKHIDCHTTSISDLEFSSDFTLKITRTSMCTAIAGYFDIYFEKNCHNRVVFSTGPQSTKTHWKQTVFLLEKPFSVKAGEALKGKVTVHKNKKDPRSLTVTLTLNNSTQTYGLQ
UniProt O14744: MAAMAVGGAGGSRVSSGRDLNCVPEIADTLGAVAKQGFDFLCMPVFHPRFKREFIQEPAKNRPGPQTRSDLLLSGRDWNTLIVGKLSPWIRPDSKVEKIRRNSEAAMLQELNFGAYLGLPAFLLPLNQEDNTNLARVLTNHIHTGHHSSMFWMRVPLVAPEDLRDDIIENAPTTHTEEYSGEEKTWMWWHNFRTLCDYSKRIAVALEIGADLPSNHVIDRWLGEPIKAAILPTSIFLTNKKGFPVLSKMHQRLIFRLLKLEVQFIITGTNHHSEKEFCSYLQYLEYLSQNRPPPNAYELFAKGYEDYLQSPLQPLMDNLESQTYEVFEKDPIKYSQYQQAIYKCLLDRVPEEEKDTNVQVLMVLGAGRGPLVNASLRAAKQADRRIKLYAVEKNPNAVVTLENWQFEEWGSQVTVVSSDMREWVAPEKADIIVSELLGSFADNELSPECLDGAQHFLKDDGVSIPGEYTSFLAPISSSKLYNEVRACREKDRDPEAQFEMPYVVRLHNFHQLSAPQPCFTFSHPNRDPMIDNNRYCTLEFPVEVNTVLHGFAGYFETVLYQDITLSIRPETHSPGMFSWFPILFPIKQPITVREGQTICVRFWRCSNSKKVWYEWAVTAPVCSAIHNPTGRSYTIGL
UniProt Q8WUM4: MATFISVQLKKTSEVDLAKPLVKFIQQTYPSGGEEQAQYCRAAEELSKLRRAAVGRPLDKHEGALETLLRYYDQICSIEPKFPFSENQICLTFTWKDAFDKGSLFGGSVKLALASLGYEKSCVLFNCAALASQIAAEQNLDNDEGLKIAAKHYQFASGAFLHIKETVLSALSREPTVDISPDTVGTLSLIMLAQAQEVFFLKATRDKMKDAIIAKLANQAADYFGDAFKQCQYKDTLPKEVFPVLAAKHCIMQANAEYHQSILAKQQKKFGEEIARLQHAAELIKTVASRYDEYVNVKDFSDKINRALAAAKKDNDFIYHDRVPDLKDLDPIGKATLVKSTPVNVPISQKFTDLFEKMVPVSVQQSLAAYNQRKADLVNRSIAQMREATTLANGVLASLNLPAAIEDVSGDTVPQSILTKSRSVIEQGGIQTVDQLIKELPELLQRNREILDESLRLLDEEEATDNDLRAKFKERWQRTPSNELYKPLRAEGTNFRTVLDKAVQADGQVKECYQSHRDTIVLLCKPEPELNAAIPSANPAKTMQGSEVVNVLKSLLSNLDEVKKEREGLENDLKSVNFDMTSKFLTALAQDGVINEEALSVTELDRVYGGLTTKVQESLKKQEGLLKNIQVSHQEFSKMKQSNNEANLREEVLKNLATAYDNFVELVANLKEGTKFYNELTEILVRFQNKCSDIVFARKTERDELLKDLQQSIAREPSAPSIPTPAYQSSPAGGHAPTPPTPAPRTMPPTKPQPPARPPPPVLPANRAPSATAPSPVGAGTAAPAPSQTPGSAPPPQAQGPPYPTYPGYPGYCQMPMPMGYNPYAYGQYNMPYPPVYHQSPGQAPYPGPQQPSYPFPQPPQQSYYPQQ

Experiment [1] addresses GFP-ALIX-3K (R745K, R757K, R767K) (human) (UniProt Q8WUM4).

This is an account of results in paper doi:10.1101/2025.07.06.663356.

No constants are given. Whether binding was seen depends on the method and setting. In cells and extracts the contact can be indirect. Some entries that bind do so weakly or less than the wild type. For part of these data: Tags and fused reporters may be left off the sequences shown.

For GFP-ALIX-FL (from UniProt Q8WUM4 1-868), the binding entry with Flag-PRMT1 (human), with Flag-PRMT2 (human), with Flag-PRMT3 (human) and in the experiment with Flag-PRMT5 (human) was “no binding” each time.

B1: CEP55, endogenous (protein, UniProt Q53EZ4 1-464)
chain: MSSRSTKDLIKSKWGSKPSNSKSETTLEKLKGEIAHLKTSVDEITSGKGKLTDKERHRLLEKIRVLEAEKEKNAYQLTEKDKEIQRLRDQLKARYSTTTLLEQLEETTREGERREQVLKALSEEKDVLKQQLSAATSRIAELESKTNTLRLSQTVAPNCFNSSINNIHEMEIQLKDALEKNQQWLVYDQQREVYVKGLLAKIFELEKKTETAAHSLPQQTKKPESEGYLQEEKQKCYNDLLASAKKDLEVERQTITQLSFELSEFRRKYEETQKEVHNLNQLLYSQRRADVQHLEDDRHKTEKIQKLREENDIARGKLEEEKKRSEELLSQVQFLYTSLLKQQEEQTRVALLEQQMQACTLDFENEKLDRQHVQHQLHVILKELRKARNQITQLESLKQLHEFAITEPLVTFQGETENREKVAASPKSPTAALNESLVECPKCNIQYPATEHRDLLVHVEYCSK
In the case of B1, the binding entry (in experiment [1]; in the experiment with GFP-ALIX-FL (human)) was “binds” each time.
